According to patent US20220293224A1, “MODULAR SYNTHON-BASED SCREENING APPROACH FOR USE IN DRUG DISCOVERY FOR DISEASES” (priority 2021, published 2022):
Some entries share one result that the patent states for a list of compounds. At least one compound was matched to its structure with a doubt left.

System: panel of more than 300 receptors
Test: PRESTO-Tango GPCRome off-target panel
Assay type: cell-based
Settings: 10 μM concentration
Method: Screening of the compounds in the PRESTO-Tango GPCRome was performed as previously described with modifications. First, HTLA cells were plated in poly-L-lysine coated 384-well white plates in DMEM containing 1% dialyzed FBS for 6 hours. Next, the cells were transfected with 20 ng/well PRESTO-Tango receptor DNAs overnight. Then, the cells were added with 10 μM drugs without changing the medium and incubated for another 24 hours. The remaining steps of the PRESTO-Tango protocol were followed. The results were plotted as fold of basal against individual receptors in the GraphPad 8.0 software. For the receptors that had >3-fold of basal signaling activity, assays were repeated as a full dose-response assay and the results were plotted as a percentage of reference compounds.

SMILES: C=CCC1(S(=O)(=O)NC(=O)c2ccc(N3CCCCC3)c(S(=O)(=O)N3CCCCCC3)c2)CC1 [BRI-13523]
- potential actives in GPCRome-Tango panel: 3-5

SMILES: O=C(Nc1ccn(C2CCCCC2)n1)C(=O)NC(CCc1ccccc1)c1ccccc1 (centres unmarked) [BRI-13610]
- potential actives in GPCRome-Tango panel: 3-5
